Experimental data taken from article PMC7619497.
Read-outs that look alike come from different tables or passages of the source. These are yes or no findings as the source states them, for the method shown. Binding seen in cells or lysates may run through a third protein. A yes stands for co-enrichment or nearness to the bait. Other partners may have been found. Tags and fused reporters may be left off the sequences shown. Blank lines part the entries; values can stand above or below the molecule they belong to.

Protein sequences, listed by entry. Tags and fused reporters are not part of them.
UniProt P20248: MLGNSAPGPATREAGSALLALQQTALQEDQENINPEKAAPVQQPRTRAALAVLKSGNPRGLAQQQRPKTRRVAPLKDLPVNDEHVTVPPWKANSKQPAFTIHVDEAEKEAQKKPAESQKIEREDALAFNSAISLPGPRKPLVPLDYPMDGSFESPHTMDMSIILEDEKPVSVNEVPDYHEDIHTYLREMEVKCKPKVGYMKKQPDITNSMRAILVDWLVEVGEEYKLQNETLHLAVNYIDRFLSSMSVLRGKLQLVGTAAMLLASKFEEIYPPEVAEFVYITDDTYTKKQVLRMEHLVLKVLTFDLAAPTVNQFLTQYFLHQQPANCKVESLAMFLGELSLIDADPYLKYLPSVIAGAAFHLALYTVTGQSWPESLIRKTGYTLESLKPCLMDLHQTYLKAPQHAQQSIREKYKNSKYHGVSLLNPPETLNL
UniProt P43694: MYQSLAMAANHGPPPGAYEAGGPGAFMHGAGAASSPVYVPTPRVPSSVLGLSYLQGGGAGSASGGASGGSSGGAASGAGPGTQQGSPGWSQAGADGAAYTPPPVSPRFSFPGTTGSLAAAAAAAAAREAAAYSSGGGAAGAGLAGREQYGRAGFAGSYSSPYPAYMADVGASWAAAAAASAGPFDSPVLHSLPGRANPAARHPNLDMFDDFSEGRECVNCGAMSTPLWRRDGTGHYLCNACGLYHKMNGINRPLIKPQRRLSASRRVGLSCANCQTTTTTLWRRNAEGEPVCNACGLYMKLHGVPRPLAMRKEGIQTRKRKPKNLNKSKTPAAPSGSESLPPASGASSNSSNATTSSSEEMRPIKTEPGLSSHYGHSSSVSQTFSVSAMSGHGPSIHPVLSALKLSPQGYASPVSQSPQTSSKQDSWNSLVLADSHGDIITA
UniProt Q13547: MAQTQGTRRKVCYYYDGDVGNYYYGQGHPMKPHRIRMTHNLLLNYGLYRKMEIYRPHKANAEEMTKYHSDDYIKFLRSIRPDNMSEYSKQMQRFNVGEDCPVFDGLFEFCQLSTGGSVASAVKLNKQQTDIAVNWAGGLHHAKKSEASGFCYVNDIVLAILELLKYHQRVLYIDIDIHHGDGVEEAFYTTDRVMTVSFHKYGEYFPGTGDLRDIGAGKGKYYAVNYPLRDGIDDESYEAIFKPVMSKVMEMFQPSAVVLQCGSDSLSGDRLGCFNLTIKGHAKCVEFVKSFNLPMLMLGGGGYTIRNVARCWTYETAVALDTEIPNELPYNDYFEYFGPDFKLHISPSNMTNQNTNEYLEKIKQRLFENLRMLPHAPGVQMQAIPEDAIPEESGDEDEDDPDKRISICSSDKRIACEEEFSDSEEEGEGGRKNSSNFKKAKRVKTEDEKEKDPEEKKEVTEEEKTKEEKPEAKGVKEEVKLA
UniProt P53350: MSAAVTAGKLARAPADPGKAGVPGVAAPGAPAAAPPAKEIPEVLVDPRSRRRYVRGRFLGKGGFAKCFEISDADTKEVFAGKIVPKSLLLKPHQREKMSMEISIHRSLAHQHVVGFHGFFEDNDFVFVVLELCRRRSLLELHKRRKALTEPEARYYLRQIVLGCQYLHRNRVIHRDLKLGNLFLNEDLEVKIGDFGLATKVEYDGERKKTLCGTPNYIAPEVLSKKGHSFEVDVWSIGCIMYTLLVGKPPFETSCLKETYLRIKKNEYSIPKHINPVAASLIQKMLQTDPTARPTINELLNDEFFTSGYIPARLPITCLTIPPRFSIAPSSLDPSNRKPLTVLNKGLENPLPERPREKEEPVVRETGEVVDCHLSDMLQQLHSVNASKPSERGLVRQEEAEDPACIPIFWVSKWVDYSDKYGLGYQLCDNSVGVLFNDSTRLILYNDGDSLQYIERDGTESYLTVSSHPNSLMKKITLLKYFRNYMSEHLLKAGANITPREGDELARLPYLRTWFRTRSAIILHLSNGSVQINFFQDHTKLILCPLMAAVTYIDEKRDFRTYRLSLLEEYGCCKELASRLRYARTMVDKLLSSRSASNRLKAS
UniProt P15884: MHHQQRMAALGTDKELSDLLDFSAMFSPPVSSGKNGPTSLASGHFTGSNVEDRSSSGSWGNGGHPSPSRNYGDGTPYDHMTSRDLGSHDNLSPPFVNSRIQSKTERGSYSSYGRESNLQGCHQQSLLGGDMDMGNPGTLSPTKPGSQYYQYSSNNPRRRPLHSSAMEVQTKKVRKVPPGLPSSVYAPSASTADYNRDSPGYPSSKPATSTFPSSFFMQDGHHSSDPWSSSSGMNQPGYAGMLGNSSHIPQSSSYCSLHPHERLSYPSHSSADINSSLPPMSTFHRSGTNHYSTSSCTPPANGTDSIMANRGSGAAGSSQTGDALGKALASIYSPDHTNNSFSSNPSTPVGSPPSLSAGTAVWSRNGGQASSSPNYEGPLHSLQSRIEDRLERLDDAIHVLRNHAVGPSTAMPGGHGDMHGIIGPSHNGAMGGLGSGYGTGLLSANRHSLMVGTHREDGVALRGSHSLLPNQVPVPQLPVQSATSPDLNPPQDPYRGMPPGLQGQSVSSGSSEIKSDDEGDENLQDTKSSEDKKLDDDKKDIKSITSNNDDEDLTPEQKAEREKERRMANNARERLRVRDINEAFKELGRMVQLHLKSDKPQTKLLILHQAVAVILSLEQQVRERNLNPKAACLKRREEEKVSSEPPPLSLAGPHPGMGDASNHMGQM
UniProt Q9C0K0: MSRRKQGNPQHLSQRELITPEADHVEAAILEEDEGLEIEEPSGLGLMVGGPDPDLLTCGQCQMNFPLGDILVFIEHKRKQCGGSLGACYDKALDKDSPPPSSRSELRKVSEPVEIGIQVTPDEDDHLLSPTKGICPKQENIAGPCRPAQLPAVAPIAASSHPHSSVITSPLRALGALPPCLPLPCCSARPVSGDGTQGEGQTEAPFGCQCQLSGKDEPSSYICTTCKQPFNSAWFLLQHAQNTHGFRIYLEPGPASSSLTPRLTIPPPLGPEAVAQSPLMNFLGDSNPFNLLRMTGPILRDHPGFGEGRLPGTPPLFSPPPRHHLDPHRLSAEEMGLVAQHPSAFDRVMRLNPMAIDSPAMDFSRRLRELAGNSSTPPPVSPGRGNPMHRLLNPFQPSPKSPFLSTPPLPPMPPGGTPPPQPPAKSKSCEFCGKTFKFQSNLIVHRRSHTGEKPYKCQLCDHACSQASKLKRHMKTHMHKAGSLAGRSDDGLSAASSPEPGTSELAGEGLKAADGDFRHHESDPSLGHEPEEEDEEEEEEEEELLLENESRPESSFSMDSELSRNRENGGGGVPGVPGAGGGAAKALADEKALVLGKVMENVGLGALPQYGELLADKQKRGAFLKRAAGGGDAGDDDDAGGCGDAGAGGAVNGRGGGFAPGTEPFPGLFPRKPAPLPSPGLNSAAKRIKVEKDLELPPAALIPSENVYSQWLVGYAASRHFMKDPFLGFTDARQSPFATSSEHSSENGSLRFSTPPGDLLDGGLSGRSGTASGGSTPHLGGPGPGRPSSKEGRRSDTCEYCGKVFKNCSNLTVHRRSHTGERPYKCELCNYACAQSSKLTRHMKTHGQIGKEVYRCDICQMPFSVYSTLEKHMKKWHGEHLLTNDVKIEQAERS
UniProt P50750: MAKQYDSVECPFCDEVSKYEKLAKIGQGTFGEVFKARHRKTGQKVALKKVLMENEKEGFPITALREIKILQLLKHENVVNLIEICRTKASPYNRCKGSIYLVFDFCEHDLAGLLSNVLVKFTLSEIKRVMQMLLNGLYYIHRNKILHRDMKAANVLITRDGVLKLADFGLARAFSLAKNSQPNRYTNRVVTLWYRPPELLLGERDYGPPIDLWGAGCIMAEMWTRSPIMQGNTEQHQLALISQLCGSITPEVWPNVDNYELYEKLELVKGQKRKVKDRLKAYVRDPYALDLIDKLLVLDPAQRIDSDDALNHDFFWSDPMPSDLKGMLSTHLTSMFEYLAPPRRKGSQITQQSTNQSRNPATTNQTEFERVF
UniProt Q99081: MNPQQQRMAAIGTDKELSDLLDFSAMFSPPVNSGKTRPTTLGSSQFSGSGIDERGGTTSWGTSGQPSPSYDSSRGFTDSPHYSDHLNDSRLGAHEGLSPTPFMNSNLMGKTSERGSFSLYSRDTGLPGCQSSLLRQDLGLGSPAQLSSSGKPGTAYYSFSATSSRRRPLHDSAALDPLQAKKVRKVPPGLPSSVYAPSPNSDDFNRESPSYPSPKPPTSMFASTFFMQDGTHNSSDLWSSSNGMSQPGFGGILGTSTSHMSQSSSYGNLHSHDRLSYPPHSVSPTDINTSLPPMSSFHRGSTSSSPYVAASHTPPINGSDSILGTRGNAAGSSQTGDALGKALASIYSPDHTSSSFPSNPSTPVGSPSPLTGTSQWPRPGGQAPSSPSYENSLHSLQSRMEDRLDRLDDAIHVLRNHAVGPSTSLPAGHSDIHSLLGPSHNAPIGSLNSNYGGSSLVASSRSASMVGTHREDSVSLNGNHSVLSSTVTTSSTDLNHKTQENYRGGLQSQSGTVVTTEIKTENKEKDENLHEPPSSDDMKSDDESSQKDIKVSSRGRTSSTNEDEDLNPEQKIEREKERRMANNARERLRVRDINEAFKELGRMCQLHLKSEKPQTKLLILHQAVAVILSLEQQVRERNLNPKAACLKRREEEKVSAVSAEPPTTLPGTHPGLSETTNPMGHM

Experiments:
[1] = target: T1, Achaete-scute homolog 1 (ASCL1), untagged wild type (human) (UniProt P50553); test: affinity purification with mass spectrometry; qPLEX-RIME: IMR^ASCL1 and BE^ASCL1 cells, 1 ug/mL doxycycline 24 h; double cross-linking (2 mM DSG 20 min, 1% formaldehyde 10 min); sonicated chromatin; ASCL1 immunoprecipitation on antibody-conjugated beads overnight at 4 C against an IgG control; 10 RIPA washes; TMT-labelled peptides, MS3
T1 sequence: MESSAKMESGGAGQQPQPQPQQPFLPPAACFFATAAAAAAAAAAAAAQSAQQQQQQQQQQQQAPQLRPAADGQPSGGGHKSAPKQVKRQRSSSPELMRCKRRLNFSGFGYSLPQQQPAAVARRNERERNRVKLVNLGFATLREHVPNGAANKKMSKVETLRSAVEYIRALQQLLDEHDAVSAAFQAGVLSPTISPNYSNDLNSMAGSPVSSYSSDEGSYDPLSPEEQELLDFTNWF

[2] = target: T1, Achaete-scute homolog 1 (ASCL1), untagged wild type (human); test: as above; remark: listed apart in the source

Molecule: Cyclin A2 (from UniProt P20248 1-432)
binding [1]: binds

Molecule: GATA4 (from UniProt P43694 1-442)
binding [1]: binds

Molecule: HDAC1 (from UniProt Q13547 1-482)
binding [1]: binds

Molecule: PLK1 (from UniProt P53350 1-603)
binding [1]: binds

Molecule: TCF4 (from UniProt P15884 1-667)
binding [1]: binds

B1: TFAP4 (protein, UniProt Q01664 1-338)
chain: MEYFMVPTQKVPSLQHFRKTEKEVIGGLCSLANIPLTPETQRDQERRIRREIANSNERRRMQSINAGFQSLKTLIPHTDGEKLSKAAILQQTAEYIFSLEQEKTRLLQQNTQLKRFIQELSGSSPKRRRAEDKDEGIGSPDIWEDEKAEDLRREMIELRQQLDKERSVRMMLEEQVRSLEAHMYPEKLKVIAQQVQLQQQQEQVRLLHQEKLEREQQQLRTQLLPPPAPTHHPTVIVPAPPPPPSHHINVVTMGPSSVINSVSTSRQNLDTIVQAIQHIEGTQEKQELEEEQRRAVIVKPVRSCPEAPTSDTASDSEASDSDAMDQSREEPSGDGELP
binding [2]: binds

B3: Cyclin F (protein, UniProt P41002 1-786)
chain: MGSGGVVHCRCAKCFCYPTKRRIRRRPRNLTILSLPEDVLFHILKWLSVEDILAVRAVHSQLKDLVDNHASVWACASFQELWPSPGNLKLFERAAEKGNFEAAVKLGIAYLYNEGLSVSDEARAEVNGLKASRFFSLAERLNVGAAPFIWLFIRPPWSVSGSCCKAVVHESLRAECQLQRTHKASILHCLGRVLSLFEDEEKQQQAHDLFEEAAHQGCLTSSYLLWESDRRTDVSDPGRCLHSFRKLRDYAAKGCWEAQLSLAKACANANQLGLEVRASSEIVCQLFQASQAVSKQQVFSVQKGLNDTMRYILIDWLVEVATMKDFTSLCLHLTVECVDRYLRRRLVPRYRLQLLGIACMVICTRFISKEILTIREAVWLTDNTYKYEDLVRMMGEIVSALEGKIRVPTVVDYKEVLLTLVPVELRTQHLCSFLCELSLLHTSLSAYAPARLAAAALLLARLTHGQTQPWTTQLWDLTGFSYEDLIPCVLSLHKKCFHDDAPKDYRQVSLTAVKQRFEDKRYGEISQEEVLSYSQLCAALGVTQDSPDPPTFLSTGEIHAFLSSPSGRRTKRKRENSLQEDRGSFVTTPTAELSSQEETLLGSFLDWSLDCCSGYEGDQESEGEKEGDVTAPSGILDVTVVYLNPEQHCCQESSDEEACPEDKGPQDPQALALDTQIPATPGPKPLVRTSREPGKDVTTSGYSSVSTASPTSSVDGGLGALPQPTSVLSLDSDSHTQPCHHQARKSCLQCRPPSPPESSVPQQQVKRINLCIHSEEEDMNLGLVRL
binding [2]: binds

B4: SATB1 (protein, UniProt Q01826 1-763)
chain: MDHLNEATQGKEHSEMSNNVSDPKGPPAKIARLEQNGSPLGRGRLGSTGAKMQGVPLKHSGHLMKTNLRKGTMLPVFCVVEHYENAIEYDCKEEHAEFVLVRKDMLFNQLIEMALLSLGYSHSSAAQAKGLIQVGKWNPVPLSYVTDAPDATVADMLQDVYHVVTLKIQLHSCPKLEDLPPEQWSHTTVRNALKDLLKDMNQSSLAKECPLSQSMISSIVNSTYYANVSAAKCQEFGRWYKHFKKTKDMMVEMDSLSELSQQGANHVNFGQQPVPGNTAEQPPSPAQLSHGSQPSVRTPLPNLHPGLVSTPISPQLVNQQLVMAQLLNQQYAVNRLLAQQSLNQQYLNHPPPVSRSMNKPLEQQVSTNTEVSSEIYQWVRDELKRAGISQAVFARVAFNRTQGLLSEILRKEEDPKTASQSLLVNLRAMQNFLQLPEAERDRIYQDERERSLNAASAMGPAPLISTPPSRPPQVKTATIATERNGKPENNTMNINASIYDEIQQEMKRAKVSQALFAKVAATKSQGWLCELLRWKEDPSPENRTLWENLSMIRRFLSLPQPERDAIYEQESNAVHHHGDRPPHIIHVPAEQIQQQQQQQQQQQQQQQAPPPPQPQQQPQTGPRLPPRQPTVASPAESDEENRQKTRPRTKISVEALGILQSFIQDVGLYPDEEAIQTLSAQLDLPKYTIIKFFQNQRYYLKHHGKLKDNSGLEVDVAEYKEEELLKDLEESVQDKNTNTLFSVKLEEELSVEGNTDINTDLKD
binding [2]: binds

The next lines start with the values.

binding [1]: binds
Molecule: BCL11B (from UniProt Q9C0K0 1-894)

binding [1]: binds
Molecule: CDK9 (from UniProt P50750 1-372)

binding [1]: binds
Molecule: HUWE1 (from UniProt Q7Z6Z7 1-4374)

binding [1]: binds
Molecule: TCF12 (from UniProt Q99081 1-682)

binding [2]: binds
B2: ARID3B (protein, UniProt Q8IVW6 1-561)
chain: MEPLQQQQQQQQQQQKQPHLAPLQMDAREKQGQQMREAQFLYAQKLVTQPTLLSATAGRPSGSTPLGPLARVPPTAAVAQVFERGNMNSEPEEEDGGLEDEDGDDEVAEVAEKETQAASKYFHVQKVARQDPRVAPMSNLLPAPGLPPHGQQAKEDHTKDASKASPSVSTAGQPNWNLDEQLKQNGGLAWSDDADGGRGREISRDFAKLYELDGDPERKEFLDDLFVFMQKRGTPINRIPIMAKQILDLYMLYKLVTEKGGLVEIINKKIWREITKGLNLPTSITSAAFTLRTQYMKYLYAYECEKKALSSPAELQAAIDGNRREGRRPSYSSSLFGYSPAAATAAAAAGAPALLSPPKIRFPILGLGSSSGTNTSSPRISPATTLRKGDGAPVTTVPVPNRLAVPVTLASQQAGTRTAALEQLRERLESGEPAEKKASRLSEEEQRLVQQAFQRNFFSMARQLPMKIRINGRAEDRAEASAAALNLTTSSIGSINMSVDIDGTTYAGVLFAQKPVVHLITGSAPQSLGSSASSSSSSHCSPSPTSSRGTPSAEPSTSWSL

binding [2]: binds
B5: HAND1 (protein, UniProt O96004 1-215)
chain: MNLVGSYAHHHHHHHPHPAHPMLHEPFLFGPASRCHQERPYFQSWLLSPADAAPDFPAGGPPPAAAAAATAYGPDARPGQSPGRLEALGGRLGRRKGSGPKKERRRTESINSAFAELRECIPNVPADTKLSKIKTLRLATSYIAYLMDVLAKDAQSGDPEAFKAELKKADGGRESKRKRELQQHEGFPPALGPVEKRIKGRTGWPQQVWALELNQ
